{
  "source": "the supplement of paper PMC8256030",
  "note": "Values joined by “and” are separate entries in the source; they are usually repeats but may differ in a detail not shown here. Equal entries are not always repeated. The list shows a part of the results. Single values are uncertain here, since repeats match poorly.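 HEK293T cells were given each compound shortly before transfection with a reporter in which red mCherry is followed by the SARS-CoV-2 frameshift element and then GFP in the −1 frame, so GFP appears only after frameshifting.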",
  "data": [
    {"test_system": "SARS-CoV-2 -1 PRF reporter mCherry-FSE-GFP(-1)", "assay": "mCherry (red) intensity as percent of control; higher = higher upstream reporter expression", "conditions": "10 µM; 24 h; HEK293T", "values": [
      {"molecule": "C[N+]12CCCCC1CCC(=C(c1cccs1)c1cccs1)C2", "note": "(stereo unspecified) [tiquizium bromide]", "mCherry": "125%"},
      {"molecule": "COc1ccc(-c2ccc3cc(C(=O)O)ccc3c2)cc1C12CC3CC(CC(C3)C1)C2", "note": "[adapalene]", "mCherry": "102% and 80.2%"},
      {"molecule": "C/C(=C(\\CCOP(=O)(O)O)SC(=O)c1ccccc1)N(C=O)Cc1cnc(C)nc1N", "note": "[benfotiamine]", "mCherry": "98.9%"},
      {"molecule": "Cc1c(O)cccc1C(=O)N[C@@H](CSc1ccccc1)[C@H](O)CN1C[C@H]2CCCC[C@H]2C[C@H]1C(=O)NC(C)(C)C", "note": "[nelfinavir]", "mCherry": "74.6%"},
      {"molecule": "CCNC(=O)N1CCN(CCCC(c2ccc(F)cc2)c2ccc(F)cc2)CC1", "note": "[amperozide]", "mCherry": "88.2%"},
      {"molecule": "CNC[C@H](O)[C@@H](O)[C@H](O)[C@H](O)CO", "note": "[meglumine]", "mCherry": "83.8%"},
      {"molecule": "N[C@@H]1C[C@H]1c1ccccc1.N[C@H]1C[C@@H]1c1ccccc1", "note": "[Tranylcypromine]", "mCherry": "86% and 88.3%"},
      {"molecule": "CC(=O)NC(Cc1ccccc1)C(=O)O", "note": "(stereo unspecified)", "mCherry": "110%"},
      {"molecule": "CCOC(=O)[N-]c1c[n+](N2CCOCC2)no1", "note": "[Molsidomine]", "mCherry": "105%"},
      {"molecule": "CC1=C(C(=O)O)N2C(=O)[C@@H](NC(=O)[C@H](N)c3ccccc3)[C@H]2SC1", "note": "[cefalexin]", "mCherry": "121%"},
      {"molecule": "CC/N=C(\\NCC)NCCCC[C@H](NC(=O)[C@H](CC(C)C)NC(=O)[C@@H](CCCCN/C(=N/CC)NCC)NC(=O)[C@H](Cc1ccc(O)cc1)NC(=O)[C@H](CO)NC(=O)[C@@H](Cc1cccnc1)NC(=O)[C@@H](Cc1ccc(Cl)cc1)NC(=O)[C@@H](Cc1ccc2ccccc2c1)NC(C)=O)C(=O)N1CCC[C@H]1C(=O)N[C@H](C)C(N)=O", "note": "[ganirelix]", "mCherry": "105%"},
      {"molecule": "CC1(S(=O)(=O)O)CC(=O)c2ccccc2C1=O", "note": "(stereo unspecified) [menadione sodium bisulfite]", "mCherry": "96.5%"},
      {"molecule": "CN1CCCN(C(c2ccccc2)c2ccc(Cl)cc2)CC1", "note": "(stereo unspecified) [homochlorcyclizine]", "mCherry": "51%"},
      {"molecule": "O=C(Oc1ccccc1C(=O)O)c1ccccc1O", "note": "[salsalate]", "mCherry": "85.8%"},
      {"molecule": "CCC(=O)Oc1ccc2c(c1)CC[C@@H]1[C@@H]2CC[C@]2(C)[C@@H](OC(=O)CC)CC[C@@H]12", "mCherry": "106%"},
      {"molecule": "N[C@@H](CC(=O)N1CCn2c(nnc2C(F)(F)F)C1)Cc1cc(F)c(F)cc1F", "mCherry": "86.8%"},
      {"molecule": "CCCCC1C(=O)N(c2ccccc2)N(c2ccc(O)cc2)C1=O", "note": "(stereo unspecified) [oxyphenbutazone]", "mCherry": "64.6%"},
      {"molecule": "C=C(C#N)C(=O)OCCCC", "note": "[enbucrilate]", "mCherry": "97%"},
      {"molecule": "CNCCC(Oc1ccccc1OC)c1ccccc1", "note": "(stereo unspecified) [nisoxetine]", "mCherry": "122%"},
      {"molecule": "CC(C)NCC(O)c1ccc(NS(C)(=O)=O)cc1", "note": "(stereo unspecified)", "mCherry": "108%"},
      {"molecule": "CCCOc1cc(N)ccc1C(=O)OCCN(CC)CC", "note": "[propoxycaine]", "mCherry": "83.4%"},
      {"molecule": "O=C1c2c(O)cccc2[C@@H](O[C@@H]2O[C@H](CO)[C@H](O)[C@@H](O)[C@H]2O)c2cc(CO)cc(O)c21", "mCherry": "112%"},
      {"molecule": "Cc1c(C)c2c(c(C)c1O)CC[C@@](C)(CCC[C@H](C)CCC[C@H](C)CCCC(C)C)O2", "mCherry": "87.1%"},
      {"molecule": "CC(=O)NC[C@H]1CN(c2ccc(N3CCOCC3)c(F)c2)C(=O)O1", "note": "[linezolid]", "mCherry": "100% and 102%"},
      {"molecule": "COCCOC(=O)C1=C(C)NC(C)=C(C(=O)OC/C=C/c2ccccc2)C1c1cccc([N+](=O)[O-])c1", "note": "(stereo unspecified) [Cilnidipine]", "mCherry": "89%"},
      {"molecule": "C[C@@H]1C[C@H]2[C@@H]3CCC4=CC(=O)C=C[C@]4(C)[C@@]3(F)[C@@H](O)C[C@]2(C)[C@H]1C(=O)CO", "note": "[desoximetasone]", "mCherry": "117%"}
    ]}
  ]
}
